According to US8709998 (dated 2014):

Assay: general procedure: Fmoc solid-phase peptide synthesis; Rink Amide MBHA resin (Novabiochem), 0.72 mmol/g; HBTU/HOBT/DIEA; DIC/HOBT or HATU/HOAT for manual couplings
Details: for final HPLC purity: analytical HPLC
[1] = whole synthesis, scale of the general procedure 0.25 mmol

| Substance | final HPLC purity [1] [%] | isolated yield [1] | other results |
| --- | --- | --- | --- |
| Camptothecin-20-(S)—O-glycinyl-succinyl-Aepa-(Doc)2-DPhe-Gln-Trp-Ala-Val-βAla-His-Leu-Leu-NH2 | 99.9 | – | – |
| Camptothecin-20-(S)—O-glycinyl-succinyl-Aepa-(Doc)2-Gln-Trp-Ala-Val-βAla-His-Leu-Leu-NH2 | 99.9 | – | – |
| Camptothecin-20-(S)—O-glycinyl-succinyl-Aepa-(Doc)4-DPhe-Gln-Trp-Ala-Val-βAla-His-Leu-Leu-NH2 | 99.9 | – | – |
| Camptothecin-20-(S)—O-glycinyl-succinyl-Aepa-(Doc)4-Gln-Trp-Ala-Val-βAla-His-Leu-Leu-NH2 | – | – | final HPLC purity (whole synthesis, scale 0.125 mmol): 96.1% |
| Camptothecin-20-(S)—O-glycyl-glutaryl-Aepa-Lys-DTyr-DTyr-cyclo(Cys-Tyr-DTrp-Lys-Abu-Cys)-Thr-NH2 | 95 | 11% | – |
| Camptothecin-20-(S)—O-glycyl-succinyl-Doc-Doc-Doc-Doe-Aepa-DPhe-cyclo(Cys-Tyr-DTrp-Lys-Abu-Cys)-Thr-NH2 | 99 | 32% | – |
| Camptothecin-20-glutaryl-(Doc)4-Lys-DTyr-DTyr-cyclo(Cys-Tyr-DTrp-Lys-Abu-Cys)-Thr-NH2 | 98.9 | 10% | – |
| Camptothecin-20-glycinyl-succinoyl-DPhe-cyclo(Cys-Tyr-DTrp-Lys-Abu-Cys)-Thr-NH2 | 94 | 15.6% | – |
| Camptothecin-Abu-succinyl-(Doc)4-Lys-DTyr-DTyr-cyclo(Cys-Tyr-DTrp-Lys-Abu-Cys)-Thr-NH2 | 95 | 23% | – |
| Camptothecin-Gly-Suc-(Doc)4-Aepa-Gaba-Gln-Trp-Ala-Val-βAla-His-Leu-Nle-NH2 | 99.4 | 14.4% | – |
| Camptothecin-Gly-glutaryl-Lys-DTyr-DTyr-cyclo(Cys-Tyr-DTrp-Lys-Abu-Cys)-Thr-NH2 | 99 | 23% | – |
| Camptothecin-Gly-glutaryl-Lys-Lys-Lys-DTyr-DTyr-cyclo(Cys-Tyr-DTrp-Lys-Abu-Cys)-Thr-NH2 | 100 | 12% | – |
| Camptothecin-Gly-succinyl-(Doc)4-DPhe-c(Cys-Tyr-DTrp-Lys-Abu-Cys)-Thr-NH2 | 100 | 31% | – |
| Camptothecin-Gly-succinyl-(Doc)6-DPhe-c(Cys-Tyr-DTrp-Lys-Abu-Cys)-Thr-NH2 | 98 | 18% | – |
| Camptothecin-Gly-succinyl-Aepa-DPhe-cyclo(Cys-Tyr-DTrp-Lys-Abu-Cys)-Thr-NH2 | 97 | 21% | – |
| Camptothecin-glutaryl-(Doc)2-Lys-DTyr-DTyr-cyclo(Cys-Tyr-DTrp-Lys-Abu-Cys)-Thr-NH2 | 95 | 11% | – |
| Camptothecin-glutaryl-Doc-Lys-DTyr-DTyr-cyclo(Cys-Tyr-DTrp-Lys-Abu-Cys)-Thr-NH2 | 95 | 16% | – |

| Substance | final HPLC purity [1] [%] | isolated yield [1] | other results |
| --- | --- | --- | --- |
| H-Doc-Doc-Doc-Aepa-DPhe-cyclo(Cys-Tyr-DTrp-Lys(Aloc)-Abu-Cys)-Thr-NH2 | – | 42% yield | isolated mass (whole synthesis): 180 mg |
| H-Doc-Doc-Doc-Doc-Aepa-DPhe-cyclo(Cys-Tyr-DTrp-Lys(Aloc)-Abu-Cys)-Thr-NH2 | – | 40% yield | isolated mass (whole synthesis): 186 mg |
| Paclitaxel-2′-Doc-Suc-(Doc)3-Aepa-DPhe-cyclo(Cys-Tyr-DTrp-Lys-Abu-Cys)-Thr-NH2 | – | – | final HPLC purity (late stage modification step): 99.9% |
| Paclitaxel-2′-O-Gly-Succinyl-Aepa-Lys-DTyr-DTyr-cyclo(Cys-Tyr-DTrp-Lys-Abu-Cys)-Thr-NH2 | – | – | final HPLC purity (whole synthesis, scale 0.1 mmol): 98% |
| Paclitaxel-2′-O-Val-Succinyl-Aepa-Lys-DTyr-DTyr-cyclo(Cys-Tyr-DTrp-Lys-Abu-Cys)-Thr-NH2 | 95 | – | – |
| Paclitaxel-2′-O-Val-Succinyl-DPhe-cyclo(Cys-Tyr-DTrp-Lys-Abu-Cys)-Thr-NH2 | 99 | – | – |
| Paclitaxel-2′-glutaryl-(Doc)4-Aepa-DPhe-cyclo(Cys-Tyr-DTrp-Lys-Abu-Cys)-Thr-NH2 | – | – | conjugation yield (conjugation step): 60%; final HPLC purity (late stage modification step): 99.9% |
| Paclitaxel-Sar-Suc-(Doc)4-Aepa-DPhe-cyclo(Cys-Tyr-DTrp-Lys-Abu-Cys)-Thr-NH2 | – | – | conjugation yield (conjugation step): 18.8%; final HPLC purity (conjugation step): 95% |
| Paclitaxel-Sar-Suc-(Doc)4-Aepa-Gaba-Gln-Trp-Ala-Val-βAla-His-Leu-Nle-NH2 | 98 | 13.4% | – |
| Paclitaxel-Suc-(Doc)4-Gaba-Gln-Trp-Ala-Val-βAla-His-Leu-Nle-NH2 | 97 | 12.1% | – |
| {5-(R)-Ethyl-9,10-difluoro-1,4,5,13-tetrahydro-3H,15H-oxepino[3′,4′:6,7]indolizino[1,2-b]quinoline-3,15-dione-5-O-glycyl-glutaryl}-(Doc)4-Lys-DTyr-DTyr-cyclo(Cys-Tyr-DTrp-Lys-Abu-Cys)-Thr-NH2 | 99 | 21.4% | – |
| {5-(R)-Ethyl-9,10-difluoro-1,4,5,13-tetrahydro-3H,15H-oxepino[3′,4′:6,7]indolizino[1,2-b]quinoline-3,15-dione-5-O-glycyl-glutaryl}-(Doc)6-Lys-DTyr-DTyr-cyclo(Cys-Tyr-DTrp-Lys-Abu-Cys-)-Thr-NH2 | 99.9 | – | isolated yield (whole synthesis, scale 0.196 mmol): 25% |
| {5-(R)-Ethyl-9,10-difluoro-1,4,5,13-tetrahydro-3H,15H-oxepino[3′,4′:6,7]indolizino[1,2-b]quinoline-3,15-dione-5-O-glycyl-glutaryl}-Aepa-Lys-DTyr-DTyr-cyclo(Cys-Tyr-DTrp-Lys-Abu-Cys)-Thr-NH2 | 95 | 24% | – |
| {5-(R)-Ethyl-9,10-difluoro-1,4,5,13-tetrahydro-3H,15H-oxepino[3′,4′:6,7]indolizino[1,2-b]quinoline-3,15-dione-5-O-glycyl-succinyl}-(Doc)4-Aepa-DPhe-cyclo(Cys-Tyr-DTrp-Lys-Abu-Cys)-Thr-NH2 | 97 | 25% | – |
| {5-(R)-Ethyl-9,10-difluoro-1,4,5,13-tetrahydro-3H,15H-oxepino[3′,4′:6,7]indolizino[1,2-b]quinoline-3,15-dione-5-O-glycyl-succinyl}-(Doc)4-Aepa-Lys-DTyr-DTyr-c(Cys-Tyr-DTrp-Lys-Abu-Cys)-Thr-NH2 | 99.9 | 48% | – |
| {5-(R)-Ethyl-9,10-difluoro-1,4,5,13-tetrahydro-3H,15H-oxepino[3′,4′:6,7]indolizino[1,2-b]quinoline-3,15-dione-5-O-glycyl-succinyl}-Aepa-DPhe-cyclo(Cys-Tyr-DTrp-Lys-Abu-Cys)-Thr-NH2 | 99.9 | 48% | – |
